Test results taken from patent publication US20160177307.
For some of these results: No signal at the amounts used counts as a negative. Construct, isoform or probe ends are uncertain for at least one entry.

Chains of the proteins cited; added tags and fusions are not shown. A line that says so, or that is headed by a name, gives the form on record, which may keep a tag or linker. Residues count along the entry.
UniProt P01127, 82-190: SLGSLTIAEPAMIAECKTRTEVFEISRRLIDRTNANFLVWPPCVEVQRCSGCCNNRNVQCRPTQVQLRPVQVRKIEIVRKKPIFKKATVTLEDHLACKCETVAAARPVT
VEGF-121 (Homo sapiens), one chain, as listed by the source: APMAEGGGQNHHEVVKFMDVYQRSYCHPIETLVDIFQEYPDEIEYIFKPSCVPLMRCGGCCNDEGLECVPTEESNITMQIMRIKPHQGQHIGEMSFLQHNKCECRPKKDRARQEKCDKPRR

Experiments:
VEGF-121 (Homo sapiens) = assay: filter binding; conditions: purified recombinant protein, protein details: R&D Systems, single-stranded DNA; for binding result: NB; for Kd: NB up to 100 nM
[1] = target: PDGF-BB (platelet-derived growth factor BB) (Homo sapiens) (UniProt P01127); assay: filter binding; conditions: purified recombinant protein, single-stranded DNA

“AGCCGTTAAGTGCTTTAGATTTAAATGGA [4867-31_100]”: no binding (VEGF-121 (Homo sapiens); P=Nap-dU, C3 spacer at 8, 17, 20).

“AGCCGTTCAAGTGCTTGTAGATTTAAATGGA [4867-31_103]”: no binding (VEGF-121 (Homo sapiens); P=Nap-dU).

“AGCCGTTCAAGTGCTTGTAGGATTTAAATGGA [4867-31_65]”: no binding (VEGF-121 (Homo sapiens); 2'-OMe A1, all P are NapdU, label: 5'-32P, variant of 4867-31_43).

“AGCCGTTCAAGTGCTTGTAGGATTTAAATGGA [4867-31_69]”: no binding (VEGF-121 (Homo sapiens); P=Nap-dU, 2'-OMe G5).

“AGCCGTTCAAGTGCTTGTAGGATTTAAATGGA [4867-31_70]”: no binding (VEGF-121 (Homo sapiens); P=Nap-dU, 2'-OMe U6).

“AGCCGTTCAAGTGCTTGTAGGATTTAAATGGA [4867-31_71]”: no binding (VEGF-121 (Homo sapiens); P=Nap-dU, 2'-OMe U7).

“AGCCGTTCAAGTGCTTGTAGGATTTAAATGGA [4867-31_79]”: no binding (VEGF-121 (Homo sapiens); P=Nap-dU, 2'-OMe U15).

“AGCCGTTCAAGTGCTTGTAGGATTTAAATGGA [4867-31_80]”: no binding (VEGF-121 (Homo sapiens); P=Nap-dU, 2'-OMe U16).

“AGCCGTTCAAGTGCTTGTAGGATTTAAATGGA [4867-31_82]”: no binding (VEGF-121 (Homo sapiens); P=Nap-dU, 2'-OMe U18).

“AGCCGTTCAAGTGCTTGTAGGATTTAAATGGA [4867-31_87]”: no binding (VEGF-121 (Homo sapiens); P=Nap-dU, 2'-OMe U23).

“AGCCGTTCAAGTGCTTGTAGGATTTAAATGGA [4867-31_88]”: no binding (VEGF-121 (Homo sapiens); P=Nap-dU, 2'-OMe U24).

“AGCCGTTCAAGTGCTTGTAGGATTTAAATGGA [4867-31_89]”: no binding (VEGF-121 (Homo sapiens); P=Nap-dU, 2'-OMe U25).

“AGCCGTTCAAGTGCTTGTAGGATTTAAATGGA [4867-31_93]”: no binding (VEGF-121 (Homo sapiens); P=Nap-dU, 2'-OMe U29).

“AGCCGTTCAAGTGCTTTAGGATTTAAATGGA [4867-31_102]”: no binding (VEGF-121 (Homo sapiens); P=Nap-dU).

“CAGCCGTTCAAGTGCTTGTAGGATTTAAAT [4867-31_46]”: no binding (VEGF-121 (Homo sapiens); all P are NapdU, rest DNA, label: 5'-32P, variant of 4867-31_43).

Sequence “CCCTCCATCAGCCGTCAAGTGCTTGTAGGATTTAAATGGAATTGGAGGA [4867-15_39]” has a Kd (VEGF-121 (Homo sapiens); P=Nap-dU, C3 spacer at 16) greater than 100 nM.

With “CCCTCCATCAGCCGTTCAAGGCTTGTAGGATTTAAATGGAATTGGAGGA [4867-15_44]” the Kd (VEGF-121 (Homo sapiens); P=Nap-dU, C3 spacer at 21) was greater than 100 nM.

Work on “CCCTCCATCAGCCGTTCAAGTGCTGTAGGATTTAAATGGAATTGGAGGA [4867-15_47]” yielded a Kd (VEGF-121 (Homo sapiens); P=Nap-dU, C3 spacer at 24) greater than 100 nM.

In the case of “CCCTCCATCAGCCGTTCAAGTGCTGTAGGATTTAAATGGAATTGGAGGA [4867-15_48]”, the Kd (VEGF-121 (Homo sapiens); P=Nap-dU, C3 spacer at 25) is reported as greater than 100 nM.

“CCCTCCATCAGCCGTTCAAGTGCTTGTAGGATTAAATGGAATTGGAGGA [4867-15_55]” was tested, and the Kd (VEGF-121 (Homo sapiens); P=Nap-dU, C3 spacer at 32) was greater than 100 nM.

“CCCTCCATCAGCCGTTCAAGTGCTTGTAGGATTAAATGGAATTGGAGGA [4867-15_56]” was tested, and the Kd (VEGF-121 (Homo sapiens); P=Nap-dU, C3 spacer at 33) was greater than 100 nM.

“CCCTCCATCAGCCGTTCAAGTGCTTGTAGGATTAAATGGAATTGGAGGA [4867-15_57]” showed a Kd (VEGF-121 (Homo sapiens); P=Nap-dU, C3 spacer at 34) greater than 100 nM.

“CCCTCCATCAGCCGTTCAAGTGCTTGTAGGATTTAAAGGAATTGGAGGA [4867-15_61]” was tested, and the Kd (VEGF-121 (Homo sapiens); P=Nap-dU, C3 spacer at 38) was greater than 100 nM.

Work on “CCCTCCATCAGCCGTTCAAGTGCTTGTAGGATTTAATGGAATTGGAGGA [4867-15_58]” yielded a Kd (VEGF-121 (Homo sapiens); P=Nap-dU, C3 spacer at 35) greater than 100 nM.

Work on “CCCTCCATCAGCCGTTCAAGTGCTTGTAGGATTTAATGGAATTGGAGGA [4867-15_59]” yielded a Kd (VEGF-121 (Homo sapiens); P=Nap-dU, C3 spacer at 36) greater than 100 nM.

With “CCCTCCATCAGCCGTTCAAGTGCTTGTAGGATTTAATGGAATTGGAGGA [4867-15_60]” the Kd (VEGF-121 (Homo sapiens); P=Nap-dU, C3 spacer at 37) was greater than 100 nM.

Sequence “CCCTCCATCAGCCGTTCAAGTGCTTGTAGGTTTAAATGGAATTGGAGGA [4867-15_54]” has a Kd (VEGF-121 (Homo sapiens); P=Nap-dU, C3 spacer at 31) greater than 100 nM.

“CCCTCCATCAGCCGTTCAAGTGTTGTAGGATTTAAATGGAATTGGAGGA [4867-15_46]” was tested, and the Kd (VEGF-121 (Homo sapiens); P=Nap-dU, C3 spacer at 23) was greater than 100 nM.

In the case of “CCGTTCAAGTGCTTGTAGGATTTAAATGGCGACAGCATGTATGCACATCT [5169-4_94]”, the Kd ([1]; VEGF-5Heg-PDGF, NapdU, 2'-OMe) is reported as 0.0005 nM.

For CGACAGCAGTATGCACATCT [5169-4_67], the Kd ([1]; C3 spacer at 9, NapdU at 11,13,19,21, NB up to 100 nM, label: 5'-32P, variant of 5169-4_26) was greater than 100 nM.

With CGACAGCATGATGCACATCT [5169-4_69] the Kd ([1]; NapdU at P, C3 spacer at 11, NB) was greater than 100 nM.

CGACAGCATGTAGCACATCT [5169-4_71] was tested, and the Kd ([1]; NapdU at P, C3 spacer at 13, NB) was greater than 100 nM.

CGACAGCATGTATGCACACT [5169-4_77] gave a Kd ([1]; NapdU at P, C3 spacer at 19, NB) greater than 100 nM.

CGACAGCATGTATGCACATC [5169-4_79] gave a Kd ([1]; C3 spacer at 21, NapdU at 9,11,13,19, NB up to 100 nM, label: 5'-32P, variant of 5169-4_26) greater than 100 nM.

CGACAGCATGTATGCACATCT [5169-4_56] showed a Kd ([1]; NapdU at 9,11,19,21, dT at 13, NB up to 100 nM, text names position 12, label: 5'-32P, variant of 5169-4_26) greater than 100 nM.

CGACAGCATGTATGCACATCT [5169-4_58] was tested, and the Kd ([1]; NapdU at 9,11,13,19, dT at 21, NB up to 100 nM, label: 5'-32P, variant of 5169-4_26) was greater than 100 nM.

CGACAGCATGTATGCACATCT [5169-4_87] was tested, and the Kd ([1]; NapdU at 9,13,19, 2'-OMe at C1,G2,C4,G6,C7,G10,A12,G14,C15,A16,C17,A18,C20 and 2'-OMe-NapU at 11,21, NB, no binding up to 3.2 nM, label: 5'-32P, variant of 5169-4_26) was greater than 3.2 nM.

With CGACAGCATGTATGCACATCT [5169-4_88] the Kd ([1]; NapdU at P, 2'-OMe 1-4,6,7,10-12,14-18,20,21, NB) was greater than 3.2 nM.

Sequence CGACAGCATGTATGCACATCT [5169-4_89] has a Kd ([1]; NapdU at P, 2'-OMe 1-4,6,7,10-21, NB) greater than 3.2 nM.

For CGACAGCATGTATGCACATCT [5169-4_90], the Kd ([1]; NapdU at P, 2'-OMe 1-7,9-21, NB) was greater than 3.2 nM.

CGACAGCATGTATGCACATCT [5169-4_91] was tested, and the Kd ([1]; all positions 2'-OMe, Nap-mU at 9,11,13,19,21, NB, no binding up to 3.2 nM, label: 5'-32P, variant of 5169-4_26) was greater than 3.2 nM.

With CGACAGCATGTATGCACATCT [5169-4_119] the Kd ([1]; NapdU at P, 2'-OMe 2,4,17 as printed, NB, printed sequence same as 5169-4_118) was greater than 3.2 nM.

With CGACAGCATGTATGCACATCT [5169-4_120] the Kd ([1]; NapdU at P, 2'-OMe 2,12,15, NB) was greater than 3.2 nM.

For CGACAGCATGTATGCACATCT [5169-4_121], the Kd ([1]; NapdU at P, 2'-OMe 2,10,12, NB) was greater than 3.2 nM.

CGACAGCATGTATGCACATCT [5169-4_122] was tested, and the Kd ([1]; NapdU at P, 2'-OMe 2,10,15, NB) was greater than 3.2 nM.

For CGACAGCATGTATGCACATCT [5169-4_126], the Kd ([1]; NapdU at P, 2'-OMe 19,20,21, NB) was greater than 3.2 nM.

In the case of CGACAGCATGTATGCACATCT [5169-4_129], the Kd ([1]; NapdU at P, 2'-OMe 10,11,12, NB) is reported as greater than 3.2 nM.

For CGACAGCATGTATGCACATCT [5169-4_144], the Kd ([1]; NapdU at 9,11,13,19, 2'-OMe at C1,C7,G14,A16,A18 and 2'-OMe-NapU21, SB18T buffer (5 mM MgCl2), 37 C, Zorbax partition, label: 5'-32P, variant of 5169-4_26) was 0.0005 nM.

Sequence CGACAGCATGTATGCACATCT [5169-4_146] has a Kd ([1]; NapdU at 9,11,13,19, 2'-OMe at C1,C4,G6,C7,G14,C15,A16,C17,A18,C20 and 2'-OMe-NapU21, SB18T, 37 C, later tables give 15 and 26 pM with 3'-idT, label: 5'-32P, variant of 5169-4_26) of 0.0006 nM.

“CGACAGCATGTATGCACATCTCCGTTCAAGTGCTTGTAGGATTTAAATGG [5169-4_101]” was tested, and the Kd ([1]; PDGF-4Heg-VEGF, NapdU, 2'-OMe) was 0.0005 nM.

CGACAGCATGTTGCACATCT [5169-4_70] gave a Kd ([1]; NapdU at P, C3 spacer at 12, NB) greater than 100 nM.

CGACAGCATTATGCACATCT [5169-4_68] showed a Kd ([1]; C3 spacer at 10, NapdU at 9,11,13,19,21, NB up to 100 nM, label: 5'-32P, variant of 5169-4_26) greater than 100 nM.
